# In the supplement of paper PMC12819154, “High-throughput peptide-centric local stability assay extends protein–ligand identification to membrane proteins, tissues and bacteria” (Nature Structural & Molecular Biology, 2025):
# Chains of the proteins cited; added tags and fusions are not shown. Lines headed by an entry give the natural chain unless they say otherwise; changes in a name come on top.
# UniProt P52789: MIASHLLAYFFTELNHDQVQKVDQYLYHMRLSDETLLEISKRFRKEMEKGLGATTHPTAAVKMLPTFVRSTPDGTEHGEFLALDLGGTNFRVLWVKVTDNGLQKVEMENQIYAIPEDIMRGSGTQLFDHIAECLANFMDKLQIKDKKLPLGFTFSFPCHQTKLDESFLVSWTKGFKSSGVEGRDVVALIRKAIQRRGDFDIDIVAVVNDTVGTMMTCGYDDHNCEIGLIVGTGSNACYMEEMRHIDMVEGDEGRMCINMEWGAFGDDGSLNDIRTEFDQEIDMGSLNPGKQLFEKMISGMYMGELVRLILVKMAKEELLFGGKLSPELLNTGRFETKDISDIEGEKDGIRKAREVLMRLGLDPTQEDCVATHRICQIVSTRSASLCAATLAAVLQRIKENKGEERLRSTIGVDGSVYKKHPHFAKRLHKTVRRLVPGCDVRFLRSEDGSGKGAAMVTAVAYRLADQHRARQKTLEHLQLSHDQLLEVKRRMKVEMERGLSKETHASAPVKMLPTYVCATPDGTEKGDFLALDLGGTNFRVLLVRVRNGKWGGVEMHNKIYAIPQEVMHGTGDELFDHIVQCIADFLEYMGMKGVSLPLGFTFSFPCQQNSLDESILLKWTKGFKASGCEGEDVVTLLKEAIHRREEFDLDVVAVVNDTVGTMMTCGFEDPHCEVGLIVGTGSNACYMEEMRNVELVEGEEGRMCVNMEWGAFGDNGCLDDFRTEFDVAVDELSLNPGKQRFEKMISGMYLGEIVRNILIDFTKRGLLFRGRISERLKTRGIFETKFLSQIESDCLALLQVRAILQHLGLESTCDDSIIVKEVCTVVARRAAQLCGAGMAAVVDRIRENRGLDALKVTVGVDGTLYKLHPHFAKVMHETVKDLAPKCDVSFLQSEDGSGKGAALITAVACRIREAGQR
# UniProt P52747: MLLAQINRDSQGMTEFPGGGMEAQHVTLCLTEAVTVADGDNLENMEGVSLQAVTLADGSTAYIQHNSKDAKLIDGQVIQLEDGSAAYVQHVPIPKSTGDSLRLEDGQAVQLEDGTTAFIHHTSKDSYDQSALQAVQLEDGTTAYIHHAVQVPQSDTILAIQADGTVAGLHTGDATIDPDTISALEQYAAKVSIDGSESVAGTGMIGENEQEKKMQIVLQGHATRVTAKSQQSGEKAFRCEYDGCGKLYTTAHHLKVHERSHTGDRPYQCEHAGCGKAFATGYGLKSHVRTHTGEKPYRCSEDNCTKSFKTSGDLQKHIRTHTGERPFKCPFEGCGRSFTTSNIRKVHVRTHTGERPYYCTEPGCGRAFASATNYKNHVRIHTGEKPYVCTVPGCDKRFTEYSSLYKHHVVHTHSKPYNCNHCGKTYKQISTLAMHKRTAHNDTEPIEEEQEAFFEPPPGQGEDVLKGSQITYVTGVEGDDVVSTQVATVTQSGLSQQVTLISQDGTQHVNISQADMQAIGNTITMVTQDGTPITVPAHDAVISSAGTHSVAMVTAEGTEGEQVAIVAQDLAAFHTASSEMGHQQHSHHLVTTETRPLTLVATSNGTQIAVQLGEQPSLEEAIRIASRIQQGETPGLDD
# UniProt P53814: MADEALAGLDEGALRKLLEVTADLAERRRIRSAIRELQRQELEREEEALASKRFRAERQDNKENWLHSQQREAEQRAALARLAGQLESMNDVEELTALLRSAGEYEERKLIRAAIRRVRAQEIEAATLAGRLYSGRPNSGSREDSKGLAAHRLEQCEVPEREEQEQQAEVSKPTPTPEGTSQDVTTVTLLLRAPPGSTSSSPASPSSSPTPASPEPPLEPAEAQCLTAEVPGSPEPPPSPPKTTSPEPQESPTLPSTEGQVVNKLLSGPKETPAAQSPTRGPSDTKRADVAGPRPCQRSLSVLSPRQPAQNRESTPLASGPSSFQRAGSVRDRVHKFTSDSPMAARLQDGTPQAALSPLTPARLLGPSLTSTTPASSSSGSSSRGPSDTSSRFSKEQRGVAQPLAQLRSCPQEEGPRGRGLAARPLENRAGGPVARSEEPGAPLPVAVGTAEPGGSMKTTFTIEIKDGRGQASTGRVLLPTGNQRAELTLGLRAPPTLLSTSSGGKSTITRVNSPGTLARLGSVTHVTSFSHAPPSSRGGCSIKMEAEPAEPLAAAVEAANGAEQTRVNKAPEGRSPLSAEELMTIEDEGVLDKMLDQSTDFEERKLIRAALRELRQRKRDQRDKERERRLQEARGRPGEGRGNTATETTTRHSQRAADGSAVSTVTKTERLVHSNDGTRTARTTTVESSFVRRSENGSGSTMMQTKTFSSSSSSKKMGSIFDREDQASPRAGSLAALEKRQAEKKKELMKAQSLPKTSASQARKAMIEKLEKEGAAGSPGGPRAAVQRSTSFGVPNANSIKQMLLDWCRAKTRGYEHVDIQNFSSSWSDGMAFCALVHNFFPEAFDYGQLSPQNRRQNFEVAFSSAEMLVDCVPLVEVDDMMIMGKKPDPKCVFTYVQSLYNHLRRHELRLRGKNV
# UniProt P49915: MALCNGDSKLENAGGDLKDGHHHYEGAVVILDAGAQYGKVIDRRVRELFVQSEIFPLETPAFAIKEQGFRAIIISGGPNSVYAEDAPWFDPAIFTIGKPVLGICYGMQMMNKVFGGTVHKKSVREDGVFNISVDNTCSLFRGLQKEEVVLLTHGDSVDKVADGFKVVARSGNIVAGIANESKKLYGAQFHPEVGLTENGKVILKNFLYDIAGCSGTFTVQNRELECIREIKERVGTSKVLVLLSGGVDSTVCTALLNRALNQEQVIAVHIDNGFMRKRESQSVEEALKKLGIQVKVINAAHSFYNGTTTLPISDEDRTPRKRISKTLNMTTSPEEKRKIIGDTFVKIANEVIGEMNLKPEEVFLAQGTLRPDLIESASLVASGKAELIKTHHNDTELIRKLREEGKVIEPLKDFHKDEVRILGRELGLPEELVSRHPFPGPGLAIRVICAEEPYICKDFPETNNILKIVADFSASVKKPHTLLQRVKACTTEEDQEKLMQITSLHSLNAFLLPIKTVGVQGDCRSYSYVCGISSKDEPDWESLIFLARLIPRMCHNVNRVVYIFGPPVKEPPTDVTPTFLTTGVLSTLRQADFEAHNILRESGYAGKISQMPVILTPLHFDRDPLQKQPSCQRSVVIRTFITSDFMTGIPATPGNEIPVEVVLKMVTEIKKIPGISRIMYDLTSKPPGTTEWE
# UniProt P49711: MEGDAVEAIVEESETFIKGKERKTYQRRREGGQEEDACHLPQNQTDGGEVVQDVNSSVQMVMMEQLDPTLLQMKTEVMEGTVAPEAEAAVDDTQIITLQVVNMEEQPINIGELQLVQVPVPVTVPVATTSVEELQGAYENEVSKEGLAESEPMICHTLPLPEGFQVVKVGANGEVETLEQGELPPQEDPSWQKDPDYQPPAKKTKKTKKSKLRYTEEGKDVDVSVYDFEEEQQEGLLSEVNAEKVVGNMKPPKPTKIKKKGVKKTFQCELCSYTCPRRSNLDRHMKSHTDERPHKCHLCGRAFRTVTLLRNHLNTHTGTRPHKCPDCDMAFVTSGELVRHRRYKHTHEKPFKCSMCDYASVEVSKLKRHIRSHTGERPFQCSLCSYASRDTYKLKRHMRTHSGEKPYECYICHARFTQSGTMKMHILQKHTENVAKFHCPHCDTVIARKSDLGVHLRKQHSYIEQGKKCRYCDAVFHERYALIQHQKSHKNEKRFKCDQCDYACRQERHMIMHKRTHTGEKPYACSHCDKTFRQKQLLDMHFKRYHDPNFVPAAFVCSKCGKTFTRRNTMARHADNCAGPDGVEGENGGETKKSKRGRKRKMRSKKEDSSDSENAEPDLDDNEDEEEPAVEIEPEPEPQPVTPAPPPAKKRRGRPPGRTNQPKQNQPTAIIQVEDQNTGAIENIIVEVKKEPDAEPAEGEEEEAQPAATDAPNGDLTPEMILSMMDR
# UniProt P52564: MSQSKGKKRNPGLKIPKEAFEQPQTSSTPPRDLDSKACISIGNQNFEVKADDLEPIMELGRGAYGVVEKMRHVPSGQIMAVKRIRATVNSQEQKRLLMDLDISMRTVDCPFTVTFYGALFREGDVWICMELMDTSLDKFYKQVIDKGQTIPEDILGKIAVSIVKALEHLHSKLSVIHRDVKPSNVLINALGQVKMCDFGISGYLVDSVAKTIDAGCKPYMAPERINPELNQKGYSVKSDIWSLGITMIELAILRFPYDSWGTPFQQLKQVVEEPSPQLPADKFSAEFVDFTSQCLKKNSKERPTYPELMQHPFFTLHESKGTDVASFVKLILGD
# UniProt P49773: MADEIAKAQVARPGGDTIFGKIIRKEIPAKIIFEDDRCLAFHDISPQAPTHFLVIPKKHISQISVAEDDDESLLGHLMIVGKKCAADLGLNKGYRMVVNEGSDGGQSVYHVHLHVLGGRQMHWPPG
# UniProt P51970, whole entry: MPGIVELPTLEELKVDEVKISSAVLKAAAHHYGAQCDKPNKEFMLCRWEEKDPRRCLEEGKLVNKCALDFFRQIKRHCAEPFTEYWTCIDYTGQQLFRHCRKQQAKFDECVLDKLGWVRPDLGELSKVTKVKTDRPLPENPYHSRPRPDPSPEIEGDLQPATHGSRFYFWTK
# UniProt P49848, whole entry: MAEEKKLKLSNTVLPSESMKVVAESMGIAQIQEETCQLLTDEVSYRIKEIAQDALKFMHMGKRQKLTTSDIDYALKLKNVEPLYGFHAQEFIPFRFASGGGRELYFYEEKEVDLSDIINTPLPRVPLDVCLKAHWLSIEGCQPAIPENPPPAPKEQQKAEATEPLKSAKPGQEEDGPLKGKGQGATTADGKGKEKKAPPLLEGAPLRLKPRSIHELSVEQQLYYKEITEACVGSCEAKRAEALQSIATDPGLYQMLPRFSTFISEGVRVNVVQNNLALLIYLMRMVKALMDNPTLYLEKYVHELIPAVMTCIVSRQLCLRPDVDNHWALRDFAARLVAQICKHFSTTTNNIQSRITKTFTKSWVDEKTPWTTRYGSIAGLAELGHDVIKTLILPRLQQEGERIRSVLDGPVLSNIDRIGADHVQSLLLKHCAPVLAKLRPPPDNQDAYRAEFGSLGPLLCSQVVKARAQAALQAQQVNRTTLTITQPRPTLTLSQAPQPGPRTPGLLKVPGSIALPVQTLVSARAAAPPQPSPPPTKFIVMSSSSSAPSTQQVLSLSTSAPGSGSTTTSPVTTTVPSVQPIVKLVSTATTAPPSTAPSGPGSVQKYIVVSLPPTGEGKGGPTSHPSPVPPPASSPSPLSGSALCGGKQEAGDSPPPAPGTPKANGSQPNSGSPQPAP
# UniProt P53384: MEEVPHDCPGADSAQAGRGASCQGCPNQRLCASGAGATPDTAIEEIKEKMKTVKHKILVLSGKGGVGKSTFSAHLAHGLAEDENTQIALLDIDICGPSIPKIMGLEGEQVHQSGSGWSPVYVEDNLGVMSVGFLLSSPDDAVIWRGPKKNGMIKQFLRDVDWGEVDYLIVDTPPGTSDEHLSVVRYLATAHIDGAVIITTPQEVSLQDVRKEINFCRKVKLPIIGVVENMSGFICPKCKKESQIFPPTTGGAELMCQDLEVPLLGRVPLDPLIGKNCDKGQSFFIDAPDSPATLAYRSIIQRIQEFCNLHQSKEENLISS
# UniProt P49754: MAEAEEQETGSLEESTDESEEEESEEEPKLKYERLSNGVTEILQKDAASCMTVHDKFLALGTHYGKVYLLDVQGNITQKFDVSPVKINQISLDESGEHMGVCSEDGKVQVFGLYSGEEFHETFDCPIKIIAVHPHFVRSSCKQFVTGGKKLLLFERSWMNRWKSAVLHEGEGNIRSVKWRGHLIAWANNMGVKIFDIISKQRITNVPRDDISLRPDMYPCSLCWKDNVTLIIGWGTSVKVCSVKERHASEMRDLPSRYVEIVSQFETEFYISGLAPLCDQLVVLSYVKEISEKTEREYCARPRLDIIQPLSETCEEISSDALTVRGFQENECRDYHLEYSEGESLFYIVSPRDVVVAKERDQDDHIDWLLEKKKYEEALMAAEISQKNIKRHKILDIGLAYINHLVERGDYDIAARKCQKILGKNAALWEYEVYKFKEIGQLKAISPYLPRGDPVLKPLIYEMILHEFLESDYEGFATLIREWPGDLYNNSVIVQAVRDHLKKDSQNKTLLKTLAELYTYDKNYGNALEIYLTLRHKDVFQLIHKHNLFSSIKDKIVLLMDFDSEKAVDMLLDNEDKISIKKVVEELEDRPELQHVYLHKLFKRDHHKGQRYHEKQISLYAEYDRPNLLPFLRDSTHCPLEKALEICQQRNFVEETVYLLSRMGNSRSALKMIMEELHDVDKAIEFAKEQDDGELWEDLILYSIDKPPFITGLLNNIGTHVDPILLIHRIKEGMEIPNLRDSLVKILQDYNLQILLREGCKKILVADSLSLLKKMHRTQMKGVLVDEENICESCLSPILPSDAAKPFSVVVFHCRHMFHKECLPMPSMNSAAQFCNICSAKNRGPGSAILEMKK
# UniProt P51809, whole entry: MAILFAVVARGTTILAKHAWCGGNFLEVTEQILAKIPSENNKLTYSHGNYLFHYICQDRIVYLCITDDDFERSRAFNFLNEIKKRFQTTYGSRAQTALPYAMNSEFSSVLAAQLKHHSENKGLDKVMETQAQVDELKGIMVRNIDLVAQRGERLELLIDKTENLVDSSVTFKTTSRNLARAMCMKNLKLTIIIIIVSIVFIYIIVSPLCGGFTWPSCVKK
# The list shows a part of the results. Most values lie at the level of the controls, where differences are scatter.
# Compound: Cc1nc(Nc2ncc(C(=O)Nc3c(C)cccc3Cl)s2)cc(N2CCN(CCO)CC2)n1 [dasatinib]
# Assay: log2 fold change of tryptic peptide abundance, ligand vs vehicle (limited proteolysis) (log2 ratio); higher = more trypsin-susceptible (destabilized)
# Conditions: ligand concentration: 5 uM; sample: K562 cleared lysate
row,Target,log2 fold change
1,"HK2 (peptide sequence: GLSKETHASAPVK, peptide start residue: 498) (UniProt P52789)",-0.924
2,"ZNF143 (peptide sequence: LEDGQAVQLEDGTTAFIHHTSK, peptide start residue: 103) (UniProt P52747)",0.488
3,"SMTN (peptide sequence: TTFTIEIK, peptide start residue: 459) (UniProt P53814)",-0.248
4,"UniProt P51814 (peptide sequence: TGANSCEHDHYEK, peptide start residue: 280)",-0.169
5,"HNRNPM (peptide sequence: EVFSMAGVVVR, peptide start residue: 222) (UniProt P52272)",-0.311
6,"SEPHS1 (peptide sequence: YGEGHQAWIIGIVEKGNR, peptide start residue: 345) (UniProt P49903)",-0.351
7,"GMPS (peptide sequence: THHNDTELIR, peptide start residue: 390) (UniProt P49915)",-0.208
8,"FXR2 (peptide sequence: LRPVNPNPLATK, peptide start residue: 122) (UniProt P51116)",-0.402
9,"GALK1 (peptide sequence: EVQLEELEAAR, peptide start residue: 257) (UniProt P51570)",0.132
10,"EIF2B2 (peptide sequence: IESFVETLKR, peptide start residue: 15) (UniProt P49770)",0.363
11,"KPNA2 (peptide sequence: QPPIDNIIR, peptide start residue: 109) (UniProt P52292)",0.0653
12,"RAP1GAP (peptide sequence: AAGISLIVPGKSPTR, peptide start residue: 473) (UniProt P47736)",-0.143
13,"CTCF (peptide sequence: KTFQCELCSYTCPRR, peptide start residue: 264) (UniProt P49711)",-0.796
14,"UniProt P49840 (peptide sequence: DIKPQNLLVDPDTAVLK, peptide start residue: 244)",0.106
15,"UniProt P52564 (peptide sequence: IRATVNSQEQK, peptide start residue: 95)",-0.782
16,"HSPA13 (peptide sequence: LGGQDFNQR, peptide start residue: 254) (UniProt P48723)",0.151
17,"HNRNPA3 (peptide sequence: WGTLTDCVVMRDPQTK, peptide start residue: 58) (UniProt P51991)",0.202
18,"HINT1 (peptide sequence: PGGDTIFGK, peptide start residue: 13) (UniProt P49773)",0.0727
19,"NDUFA8 (peptide sequence: FDECVLDK, peptide start residue: 107) (UniProt P51970)",-0.397
20,"UniProt P48047 (peptide sequence: VAASVLNPYVK, peptide start residue: 74)",-0.283
21,"PITPNB (peptide sequence: ADEDPALFQSVK, peptide start residue: 156) (UniProt P48739)",-0.115
22,"TAF6 (peptide sequence: HCAPVLAK, peptide start residue: 430) (UniProt P49848)",-0.365
23,"NUBP1 (peptide sequence: KVKLPIIGVVENMSGFICPK, peptide start residue: 218) (UniProt P53384)",0.725
24,"UniProt P51523 (peptide sequence: THTGEKPHGCIQCGK, peptide start residue: 424)",-1.2
25,"VPS41 (peptide sequence: EGMEIPNLR, peptide start residue: 732) (UniProt P49754)",0.144
26,"RAB13 (peptide sequence: RSGNGNKPPSTDLK, peptide start residue: 177) (UniProt P51153)",0.477
27,"VAMP7 (peptide sequence: AILFAVVAR, peptide start residue: 2) (UniProt P51809)",-0.299
28,"CCNH (peptide sequence: GYEDDDYVSKK, peptide start residue: 296) (UniProt P51946)",0.307

# Two entries from above, with bars between the fields.
row | Target | log2 fold change
25 | VPS41 (peptide sequence: EGMEIPNLR, peptide start residue: 732) (UniProt P49754) | 0.144
26 | RAB13 (peptide sequence: RSGNGNKPPSTDLK, peptide start residue: 177) (UniProt P51153) | 0.477
